The target of the data set is T1, ELK1 (UniProt P19419).
T1 sequence (looked up, limits assumed): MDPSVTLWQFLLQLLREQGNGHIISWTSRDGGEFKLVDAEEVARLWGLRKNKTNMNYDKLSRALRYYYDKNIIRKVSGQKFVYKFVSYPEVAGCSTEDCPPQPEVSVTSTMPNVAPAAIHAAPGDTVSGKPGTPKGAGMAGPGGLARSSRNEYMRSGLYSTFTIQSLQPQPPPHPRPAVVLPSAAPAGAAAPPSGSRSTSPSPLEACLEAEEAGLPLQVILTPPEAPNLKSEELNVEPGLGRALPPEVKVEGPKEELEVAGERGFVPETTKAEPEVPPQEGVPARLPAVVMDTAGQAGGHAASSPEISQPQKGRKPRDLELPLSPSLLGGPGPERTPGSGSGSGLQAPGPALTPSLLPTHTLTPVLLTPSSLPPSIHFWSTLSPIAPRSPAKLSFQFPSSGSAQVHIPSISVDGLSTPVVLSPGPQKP
The data set is described as follows: EMSA supershift. Conditions: anti-ELK1 antibody, nuclear extract, complex more abundant with CR than WT cell extract; LightShift Chemiluminescent EMSA Kit (Thermo Fisher) with nuclear extracts; pH and temperature not stated; protein in an extract; label: 5' biotin. (In EMSA bound probe runs differently from free probe, usually more slowly.)

The exact form of at least one protein or probe is not confirmed. At least one result comes from cells or an extract, where the contact may be indirect. Tags and fusion partners may be left off the protein sequences shown.

Take “GACGGACGCACTTCCGGCGGATGTGGGGGCCAGCCCTCGGAAACGGAAGTGAGCGGC (double strand) [Biotin-POMP-P wt-F probe]”: the binding result is recorded as “binds”.
